Assay results: article PMC2956695

B1: Fba1, fructose-bisphosphate aldolase (protein, UniProt P36580 1-358)
chain: MGILDIVPTGVITGDNVLKLFTYAREHGFAIPAINVTSSSTAIAALEAAREARSPIILQTSNGGAHFFAGKESSNEGQKASIAGSIAAAHYIRSIAPFFGVPVVMHSDHCAKKLLPWMDGMFEADEAYFKIHGEPLFSSHMLDLSEEPKKENIAQVKEYCKRAVPMKIWIEMEIGITGGEEDGVDNSHVSHTELYTQPEDIWDVYRELSSVTPYFSIAAAFGNVHGVYKPGNVKLQPALLGQHQAYVKEQLKTTNDKPVFFVFHGGSGSSVNEFRTGIKCGVVKVNIDTDTQFAYVEGVRDYVLKYKDYLMTPVGNPEGADKPNKKKFDPRVWIHEGEKTMTKRVLTALEDFYTVNTL
B2: SPAC17A5.15c, glutamate-tRNA ligase (protein, UniProt O13775 1-716)
chain: MSVSVALKAKPIAYGAVACANYVNLSGAGSISVKYEDVALLDKQNKESNVSIQLNGSDSPVFGSKLALQTFSQVYPKLFIGENDRSLVESWVETASALAGNHNFLELSSLLAQLDDHLIMRSLFVGYSLTSADFSIWGALKSNNMAAGAVRTGQYFNLARWYKFMDSQNAVSVTMEEFTKAVNISKKQKSSGPNYEIGLPDAIDGKVVTRFPPEPSGYLHIGHAKAALLNQYFANKYHGKLIVRFDDTNPSKENSEFQDAILEDVALLGIKPDVVTYTSDYLDTIHQYCVDMIKSGQAYADDTDVETMRHERTEGIPSKHRDRPIEESLEILSEMDKGSDVGLKNCIRAKISYENPNKAMRDPVIYRCNLLPHHRTGTKYRAYPTYDFACPIVDSLEGVTHALRTTEYRDRNPLYQWMIKAMNLRKIHVWEFSRMNFVRTLLSKRKLTEIVDHGLVWGWDDPRFPTVRGVRRRGMTIEALQQYIVSQGPSKNILTLDWTSFWATNKKIIDPVAPRHTAVESGDVVKATIVNGPAAPYAEDRPRHKKNPELGNKKSIFANEILIEQADAQSFKQDEEVTLMDWGNAYVREINRDASGKVTSLKLELHLDGDFKKTEKKVTWLADTEDKTPVDLVDFDYLITKDKLEEGENYKDFLTPQTEFHSPVFADVGIKNLKKGDIIQVERKGYYIVDVPFDGTQAVLFNIPDGKTVNRYGVKN
B3: SPCC1827.06c, aspartate semialdehyde dehydrogenase (protein, UniProt P78780 1-357)
chain: MAIKKVGILGATGTVGQRFITLLSDHPEFKIAVLGASARSAGKPYAVATKWKQSIAMPKEISQMSVKACDPKEFSECDIVFSGLDADFAGEIEKSFRDANLVIVSNAKNYRREPTVPLVVPTVNTDHLDVIKYQRQENKLDRGCIITNSNCSTAAVVVPLKALQDAFGPIAQTNVVSMQAISGAGYPGVSSLDILDNIVPFIGGEEEKIEWETRKILGSVNSTISGYELTDNVVSAQCNRVPVIDGHLMCISVKFAKTSPTPDQVREVLANYVSEPQKLGCYSAPKQAIYVFDDSTPDRPQPRLDRNNENGYAVSVGRIRSDSIFDIKFVSLVHNTVLGAAGAGILNAEVAVKKGLM
B4: Pgk1, phosphoglycerate kinase (protein, UniProt O60101 1-414)
chain: MSLSTKLAITDVDLKGKNVLIRVDFNVPLDGDRITNNARIVGALPTIKYALEQQPKAVILMSHLGRPNGARVAKYSLKPVAAELSKLLGKPVKFLDDCVGPEVEKACKEAKGGEVILLENLRFHIEEEGSAKVDGKKVKADASAVEAFRKSLTSLGDIFVNDAFGTAHRAHSSMVGVDLPRVSGFLMKKELDYFSKALENPARPFLAILGGAKVADKIQLIDNLLDKVNRLIICGGMAFTFLKVLNGMKIGDSLFDEAGSKNVESMMAKAKKNNVEVFLPVDFVTADKFDKDAKVGSATAEEGIPDGWMGLDCGPKSSAKFAEVITTSKTIVWNGPAGVFEFDNFAKGTKSMLDACVKTCEAGNVVIVGGGDTATVAKKYGKEDALSHVSTGGGASLELLEGKALPGVVALSSK

These binders were tested against T1, Slm9-3XFLAG (S. pombe) (UniProt O74309) (assay: affinity purification with mass spectrometry; extracts from 5 g of cells expressing Slm9-FLAG, Dynabeads coupled to anti-FLAG M2 antibody for 15 mins, Benzonase treatment, on-bead tryptic digestion, LC-MS/MS; listed proteins found in at least two independent purifications and absent from four control purifications from untagged cells).
T1 sequence: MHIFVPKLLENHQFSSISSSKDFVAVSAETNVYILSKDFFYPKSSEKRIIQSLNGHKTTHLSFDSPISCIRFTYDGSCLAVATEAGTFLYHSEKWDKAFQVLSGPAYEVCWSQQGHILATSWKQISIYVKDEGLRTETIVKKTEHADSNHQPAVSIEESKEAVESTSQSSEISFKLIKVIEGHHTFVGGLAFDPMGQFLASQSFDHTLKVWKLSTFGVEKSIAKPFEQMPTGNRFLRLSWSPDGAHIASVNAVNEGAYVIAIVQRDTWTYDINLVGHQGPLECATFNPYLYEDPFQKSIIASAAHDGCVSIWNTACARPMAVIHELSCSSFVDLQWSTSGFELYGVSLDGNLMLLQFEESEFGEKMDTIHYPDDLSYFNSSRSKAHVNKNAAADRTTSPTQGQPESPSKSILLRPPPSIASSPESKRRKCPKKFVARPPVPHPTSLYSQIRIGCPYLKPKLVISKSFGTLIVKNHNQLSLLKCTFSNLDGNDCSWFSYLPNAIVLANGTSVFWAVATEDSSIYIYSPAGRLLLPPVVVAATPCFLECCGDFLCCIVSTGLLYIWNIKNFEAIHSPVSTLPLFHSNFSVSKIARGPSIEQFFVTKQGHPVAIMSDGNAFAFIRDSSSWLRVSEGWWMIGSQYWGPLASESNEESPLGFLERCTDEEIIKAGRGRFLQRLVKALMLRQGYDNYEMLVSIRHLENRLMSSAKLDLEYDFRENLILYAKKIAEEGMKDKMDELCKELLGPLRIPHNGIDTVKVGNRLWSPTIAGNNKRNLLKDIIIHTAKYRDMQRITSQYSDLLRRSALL

binding, binds:
B1
B2
B3
B4

No constants are given. Whether binding was seen depends on the method and setting. In cells and extracts the contact can be indirect. Here binding means that the protein was enriched with, or labelled near, the bait; the list need not be complete. Where a sequence is shown, tags or fusion partners need not be part of it.
